Test results as given in US20260345641A1, “COMPOSITIONS AND USES THEREOF” (Algorae Pharmaceuticals Ltd, priority 2023, published 2026).

Legend:
[1] = oral administration; cited from earlier work
[2] = tested on: SH-SY5Y cells; assay: Gene expression analysis by RNA sequencing in the presence of Aβ; format: cell-based, human; settings: 5 μM, with Aβ
Text: The SH-S5Y5 neuroblastoma cell line was used for pre-clinical analysis. The SH-S5Y5 cell line is commonly used as a model for neurodegenerative disorders as the cells can be converted to various types of functional neurons by the addition of specific compounds (see, e.g., Xicoy et al., 2017, Molecular Neurodegeneration, 12: 10). In addition, the SH-S5Y5 cell line has been used widely in experimental neurological studies, including analysis of neuronal differentiation, metabolism, and function related to neurodegenerative processes, neurotoxicity and neuroprotection (see, e.g., Datki et al., 2003, Brain Research Bulletin, 62(3): 22-229; and Xie et al., 2010, Chinese Medical Journal, 123(8): 1086-1092).
Total RNA was isolated from cells using TRIzol in accordance with the manufacturer's instructions (Invitrogen, Carlsbad, CA, USA). RNA concentration and quality was assessed using a NanoDrop spectrophotometer. Only samples with a 260/280 ratio of ≥1.8 were used for further analysis.
Messenger RNA (mRNA) was purified from total RNA using poly-T oligo attached magnetic beads. After fragmentation, cDNA synthesis was performed in accordance with the manufacturer's instructions (Illumina, San Diego, CA, USA) to generate a directional and non-directional library. Libraries were checked with Qubit, real-time PCR was performed for quantification, and size distribution detection was performed using the Bioanalyzer. Quantified libraries were pooled and sequenced on an Illumina platform, according to the manufacturer's instructions.
Raw reads were filtered and mapped to human reference genome (GRCh38/hg38) using HISAT2. Differential gene expression analysis was performed using R Package DEG seq2. […] Manual annotation of genes previously associated with specific neurodegenerative disorders and dementias was performed following a text mining analysis.

COc1cc2c(cc1OC)C(=O)C(CC1CCN(Cc3ccccc3)CC1)C2 (centres unmarked) [Donepezil]
bioavailability [1]: high bioavailability | CARD14 gene expression ([2]; control 0.139, P 0.051): 0.106 | CYP51A1 gene expression ([2]; control 1.068, P 0.020): 1.389 | CYP27A1 gene expression ([2]; control 2.685, P 0.037): 0.693 | EIF2B4 gene expression ([2]; control 17.110, P 0.014): 13.862
